Consider 42 sequences from publication PMC7819943, “Rice protein-binding microarrays: a tool to detect cis-acting elements near promoter regions in rice”.

Protein sequences, listed by entry. Tags and fused reporters are not part of them.
UniProt Q0JBA9, entry or part of it: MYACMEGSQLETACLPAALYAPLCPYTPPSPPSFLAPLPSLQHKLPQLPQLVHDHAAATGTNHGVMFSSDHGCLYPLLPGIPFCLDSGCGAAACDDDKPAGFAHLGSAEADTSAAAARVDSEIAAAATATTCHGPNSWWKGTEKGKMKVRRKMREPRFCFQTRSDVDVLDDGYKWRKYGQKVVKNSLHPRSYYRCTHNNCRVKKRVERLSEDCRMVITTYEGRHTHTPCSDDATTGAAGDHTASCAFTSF

The list shows a part of the results.

The target of this test is OsWRKY34 (Oryza sativa, UniProt Q0JBA9 1-250). The test is described as follows: protein-binding microarray (RPBM); PBS, 2% BSA, 51.3 ng/ul salmon testes DNA, 50 uM zinc acetate, 200 nM TF, 25 C, 1 h; high values mean tight binding. Conditions: protein: recombinant; tags: N-terminal polyhistidine and DsRed monomer fusion (pET32a); label: CyDye5-dUTP incorporated in the synthesized complementary strand; 3' TTTTT single-stranded linker to array surface; dsDNA, one strand shown. The essentials: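 Using Ni–NTA, transcription factors fused N-terminally to polyhistidine and DsRed were purified after expression in E. coli BL21-CodonPlus. These were incubated at 200 nM with a blocked, double-stranded custom Agilent array for 1 h at 25 °C in a buffer containing 50 µM zinc acetate, and the array was washed. The binding signal is per-feature fluorescence intensity (arbitrary units) on an Axon 4000B scanner.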
As for “GCATTTCCTACCACATTCTGAATCCGTCTTCTTTTAAAATCGGAGTCACCTAGTGCAG”, the binding signal is 12300 fluorescence intensity (a.u.).

For “AGCATTCCATCAGATATTGTTAGTTTGCCCCATTTGTCACCGGAGTCACCTAGTGCAG”, the binding signal is 8400 fluorescence intensity (a.u.).

On to “GCCCATTAACCTACTGCCCGGCCTAATATGAATCGGAAGGCGGAGTCACCTAGTGCAG”, for which the binding signal is 8120 fluorescence intensity (a.u.).

Turning to “TGCAACCACCACCACCACGTCCCAAACTCGCACGTTTCTCCGGAGTCACCTAGTGCAG”, the binding signal was 9390 fluorescence intensity (a.u.).

In the case of “CAGTCTAAGGCATGCCCGTTCCGACCGACCCATATCCACGCGGAGTCACCTAGTGCAG”, the binding signal was 8270 fluorescence intensity (a.u.).

On to “CCGCGTTCCCACCCCGCGCGTCGCGATCCCACCTATGCGACGGAGTCACCTAGTGCAG”, for which the binding signal is 8470 fluorescence intensity (a.u.).

Regarding “GTCGTCTCTCGCATTTTTCCTTTGCTCCTCTGGTTGGAAGCGGAGTCACCTAGTGCAG”, the binding signal was 10600 fluorescence intensity (a.u.).

On to “TCAATGCAACAGCTAGTACTACTCTTACTCCCAATGAAAACGGAGTCACCTAGTGCAG”, for which the binding signal was 8240 fluorescence intensity (a.u.).

As to “CCGGGGATGATTCCGCCGAGTGTGTTATTGATTGTATGATCGGAGTCACCTAGTGCAG”, the binding signal is 8640 fluorescence intensity (a.u.).

As for “GGGGAGATGGTTTGGTGAGGAGTTGTGTGTTGCTGCAGCTCGGAGTCACCTAGTGCAG”, the binding signal was 8440 fluorescence intensity (a.u.).

“AGCACCATATATACATCACCACCCTGCTCTGATCAAGCATCGGAGTCACCTAGTGCAG”: the binding signal was 8050 fluorescence intensity (a.u.).

Take “CAACGCATTTTTTTCTGTTTACCGGCAAGCTGAAGCTTTTCGGAGTCACCTAGTGCAG”: the binding signal was 8250 fluorescence intensity (a.u.).

In the case of “GCTTGTTCTTCCCGGCCATCTTCTCTTCCCCATCTTCCGGCGGAGTCACCTAGTGCAG”, the binding signal is 10700 fluorescence intensity (a.u.).

As to “CGCTACAGTACCTTCTTCCTGCTCCAGCCGAGCCTGAACACGGAGTCACCTAGTGCAG”, the binding signal is 8410 fluorescence intensity (a.u.).

“TGGTGGTGGTGGGGAGAGAGAGAGAGAGAACTTAACGATGCGGAGTCACCTAGTGCAG”: the binding signal was 9080 fluorescence intensity (a.u.).

With “CCTCAAAAGTACCAGCCGCCTCATCTTTCCGCTTATGTTTCGGAGTCACCTAGTGCAG”, the binding signal is 11000 fluorescence intensity (a.u.).

On to “GGTGACTGCTTCCACTTTTAGCTATTTCCTGTTCACGGTTCGGAGTCACCTAGTGCAG”, for which the binding signal was 15600 fluorescence intensity (a.u.).

In the case of “TATCTCATTTAGGTTTGGATAGGTGTTTGACTACTAATTCCGGAGTCACCTAGTGCAG”, the binding signal was 9520 fluorescence intensity (a.u.).

Consider “ATTCCACATTTTTTAGTCGCTTTAACTCCACTGAATATTTCGGAGTCACCTAGTGCAG”, for which the binding signal was 8890 fluorescence intensity (a.u.).

As to “CTGACCTATTAGTATCAGCCCATATATTTTGCACAAATCCCGGAGTCACCTAGTGCAG”, the binding signal was 8050 fluorescence intensity (a.u.).

Regarding “CGGCCCATAAACATCCCATCGGCCATCTCTGCAACGCCTCCGGAGTCACCTAGTGCAG”, the binding signal is 8490 fluorescence intensity (a.u.).

Regarding “GCCCATTAATTTCTCGTCGTCTCCCTTTTCTCAAACAGTACGGAGTCACCTAGTGCAG”, the binding signal was 8120 fluorescence intensity (a.u.).

Turning to “GATAACTCCAGGAGAATTTACTGAGATGGCCTGGGAGGGGCGGAGTCACCTAGTGCAG”, the binding signal is 9560 fluorescence intensity (a.u.).

Regarding “TAAACCCTAAGTTTCTGTGTCCAACGTTTGACTGTCTGTCCGGAGTCACCTAGTGCAG”, the binding signal is 8170 fluorescence intensity (a.u.).

For the sequence “CGTCTTGTCTTGGCGTATGTTGGCTTGTATGTTGTTCCGTCGGAGTCACCTAGTGCAG”, the binding signal was 10500 fluorescence intensity (a.u.).

Regarding “CATGTGCTACTTGTCTTGCCGTTGATCTTGCTGCTCGATTCGGAGTCACCTAGTGCAG”, the binding signal was 8380 fluorescence intensity (a.u.).

On to “ATTTTTCTAGTGTTTTGAACTTTTGATCATCCATTTTGTCCGGAGTCACCTAGTGCAG”, for which the binding signal is 9850 fluorescence intensity (a.u.).

As to “TGTCAACCGCGCGCCAAATTCTCCCACATATATCCTCCACCGGAGTCACCTAGTGCAG”, the binding signal is 12500 fluorescence intensity (a.u.).

On to “GGAGGTAGATGGAAAAAGTAAATGGTGGAGGGTTGTAATTCGGAGTCACCTAGTGCAG”, for which the binding signal is 11300 fluorescence intensity (a.u.).

For the sequence “ACGGCGACCGCGCCTACCGCTTCCTGTTCGACTGCGTCGCCGGAGTCACCTAGTGCAG”, the binding signal was 8220 fluorescence intensity (a.u.).

Consider “ACTATTTGTCAATCATACTTCTTTCATGATATTCATTTTGCGGAGTCACCTAGTGCAG”, for which the binding signal is 8070 fluorescence intensity (a.u.).

On to “CCCTCCTTCCCTTTTAGTGGGTCTGTTTTCTTGGAGCGCGCGGAGTCACCTAGTGCAG”, for which the binding signal was 8600 fluorescence intensity (a.u.).

For “CCATCTCCACCGAGCTCGGCCGTCTGCCCCGCTCATCTCGCGGAGTCACCTAGTGCAG”, the binding signal is 11300 fluorescence intensity (a.u.).

Turning to “ACAAATTGGTCACTGGCTGAATAGTTTCTACATCAGTTAACGGAGTCACCTAGTGCAG”, the binding signal was 10200 fluorescence intensity (a.u.).

As for “AGGTGGTGTAGCGCGCGCGGGTGGGGTTGGGTTACGTGGTCGGAGTCACCTAGTGCAG”, the binding signal was 15600 fluorescence intensity (a.u.).

Take “GATCATGGCGCGCACCGACCGGTCGTCGTCACTCCAACGTCGGAGTCACCTAGTGCAG”: the binding signal was 8960 fluorescence intensity (a.u.).

Consider “TTGTCTGAAGGCTGCTGCCTTTGTTTTTTTTTCGTCTGCTCGGAGTCACCTAGTGCAG”, for which the binding signal was 9540 fluorescence intensity (a.u.).

With “GTCTTAATTGTTCCTCATGTGTTTGTATGTTGTCTGGATTCGGAGTCACCTAGTGCAG”, the binding signal is 11600 fluorescence intensity (a.u.).

With “CAAGGGATTTGTGGAGGGTGGCATCGCGTCCATCGTCGCTCGGAGTCACCTAGTGCAG”, the binding signal was 8320 fluorescence intensity (a.u.).

As to “GATTGTAGTTTGTATATGCTGCCCATTTCTGTTGTTCTTTCGGAGTCACCTAGTGCAG”, the binding signal was 18900 fluorescence intensity (a.u.).

Turning to “ACAAACTCGCCGCACACCTGCCACTCCGCCGAGATCTCACCGGAGTCACCTAGTGCAG”, the binding signal was 12100 fluorescence intensity (a.u.).

Regarding “TACCTACTCCCAATGTGAACTGATTCCATCTCTGCTTTCTCGGAGTCACCTAGTGCAG”, the binding signal is 8840 fluorescence intensity (a.u.).
